Values from PubChem BioAssay AID1259308 (NCATS, 2017)
Shown is a random part of about 59,000 reagents tested. Over the whole deposit, about 1,510 (2.6%) were called active. 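Calls use total luciferase alone and ignore viability, so some active siRNAs may act by altering cell number.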 Reagents against one gene are numbered here. Further read-outs or replicates are left out here. Reagent sequences are not shown.

Aim: 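Knock-downs that increase output of a recombinant reporter protein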 (primary screen)
System: human HEK293 embryonic kidney cells stably expressing firefly luciferase (HEK-CMV-Luc2-Hygro)
Reagent: single siRNA against human genes, 0.8 pmol siRNA per well
Timing: 72 h
Measured: 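Reporter luminescence and viable-cell signal on separate replicate plates, given as percent of non-targeting control and median/MAD z-scores, plus per-cell luciferase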
Reading the numbers: total luciferase, z-score and total luciferase, % of control: higher = more reporter protein produced
Hit rule: 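An siRNA counts as active if its total luciferase robust z-score exceeds 3; genes with two or more such siRNAs out of three were retested with fresh siRNAs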
Calls: active = raised luciferase; inactive = no rise

{"Gene": "B4GALT7", "siRNA no.": 1, "total luciferase, z-score": -2.33, "total luciferase, % of control": 35.5, "outcome": "inactive"}
{"Gene": "B4GALT7", "siRNA no.": 2, "total luciferase, z-score": -0.158, "total luciferase, % of control": 78.7, "outcome": "inactive"}
{"Gene": "B4GALT7", "siRNA no.": 3, "total luciferase, z-score": 1.03, "total luciferase, % of control": 102, "outcome": "inactive"}
{"Gene": "TET1P1", "siRNA no.": 1, "total luciferase, z-score": 0.326, "total luciferase, % of control": 88.4, "outcome": "inactive"}
{"Gene": "TET1P1", "siRNA no.": 2, "total luciferase, z-score": -0.361, "total luciferase, % of control": 74.7, "outcome": "inactive"}
{"Gene": "TET1P1", "siRNA no.": 3, "total luciferase, z-score": 2.4, "total luciferase, % of control": 130, "outcome": "inactive"}
{"Gene": "SZT2", "siRNA no.": 1, "total luciferase, z-score": -1.17, "total luciferase, % of control": 58.7, "outcome": "inactive"}
{"Gene": "SZT2", "siRNA no.": 2, "total luciferase, z-score": -0.641, "total luciferase, % of control": 69.1, "outcome": "inactive"}
{"Gene": "SZT2", "siRNA no.": 3, "total luciferase, z-score": 0.347, "total luciferase, % of control": 88.8, "outcome": "inactive"}
{"Gene": "SZT2", "siRNA no.": 4, "total luciferase, z-score": 0.294, "total luciferase, % of control": 87.7, "outcome": "inactive"}
{"Gene": "SZT2", "siRNA no.": 5, "total luciferase, z-score": -0.136, "total luciferase, % of control": 79.2, "outcome": "inactive"}
{"Gene": "SZT2", "siRNA no.": 6, "total luciferase, z-score": 0.166, "total luciferase, % of control": 85.2, "outcome": "inactive"}
{"Gene": "DYNC1I1", "siRNA no.": 1, "total luciferase, z-score": 0.152, "total luciferase, % of control": 84.9, "outcome": "inactive"}
{"Gene": "DYNC1I1", "siRNA no.": 2, "total luciferase, z-score": 0.705, "total luciferase, % of control": 95.9, "outcome": "inactive"}
{"Gene": "DYNC1I1", "siRNA no.": 3, "total luciferase, z-score": -0.416, "total luciferase, % of control": 73.6, "outcome": "inactive"}
{"Gene": "PTCH2", "siRNA no.": 1, "total luciferase, z-score": 1.81, "total luciferase, % of control": 118, "outcome": "inactive"}
{"Gene": "PTCH2", "siRNA no.": 2, "total luciferase, z-score": -1.27, "total luciferase, % of control": 56.6, "outcome": "inactive"}
{"Gene": "PTCH2", "siRNA no.": 3, "total luciferase, z-score": 1.2, "total luciferase, % of control": 106, "outcome": "inactive"}

Targets listed so far whose target name begins with P or p:
{"Gene": "PTCH2", "siRNA no.": 1, "total luciferase, z-score": 1.81, "total luciferase, % of control": 118, "outcome": "inactive"}
{"Gene": "PTCH2", "siRNA no.": 2, "total luciferase, z-score": -1.27, "total luciferase, % of control": 56.6, "outcome": "inactive"}
{"Gene": "PTCH2", "siRNA no.": 3, "total luciferase, z-score": 1.2, "total luciferase, % of control": 106, "outcome": "inactive"}

The results go on:
{"Gene": "ZNF385D", "siRNA no.": 1, "total luciferase, z-score": 0.237, "total luciferase, % of control": 86.6, "outcome": "inactive"}
{"Gene": "ZNF385D", "siRNA no.": 2, "total luciferase, z-score": 1.38, "total luciferase, % of control": 109, "outcome": "inactive"}
{"Gene": "ZNF385D", "siRNA no.": 3, "total luciferase, z-score": 1.58, "total luciferase, % of control": 113, "outcome": "inactive"}
{"Gene": "CYTL1", "siRNA no.": 1, "total luciferase, z-score": 0.467, "total luciferase, % of control": 91.2, "outcome": "inactive"}
{"Gene": "CYTL1", "siRNA no.": 2, "total luciferase, z-score": 0.914, "total luciferase, % of control": 100, "outcome": "inactive"}
{"Gene": "CYTL1", "siRNA no.": 3, "total luciferase, z-score": 1.37, "total luciferase, % of control": 109, "outcome": "inactive"}
{"Gene": "LYLDT1", "siRNA no.": 1, "total luciferase, z-score": 0.607, "total luciferase, % of control": 94, "outcome": "inactive"}
{"Gene": "LYLDT1", "siRNA no.": 2, "total luciferase, z-score": -1.11, "total luciferase, % of control": 59.7, "outcome": "inactive"}
{"Gene": "LYLDT1", "siRNA no.": 3, "total luciferase, z-score": -0.296, "total luciferase, % of control": 76, "outcome": "inactive"}
{"Gene": "RTL8B", "siRNA no.": 1, "total luciferase, z-score": -0.321, "total luciferase, % of control": 75.5, "outcome": "inactive"}
{"Gene": "RTL8B", "siRNA no.": 2, "total luciferase, z-score": 1.3, "total luciferase, % of control": 108, "outcome": "inactive"}
{"Gene": "RTL8B", "siRNA no.": 3, "total luciferase, z-score": -1.05, "total luciferase, % of control": 61.1, "outcome": "inactive"}
{"Gene": "B3GNT3", "siRNA no.": 1, "total luciferase, z-score": 0.451, "total luciferase, % of control": 90.9, "outcome": "inactive"}
{"Gene": "B3GNT3", "siRNA no.": 2, "total luciferase, z-score": -1.03, "total luciferase, % of control": 61.3, "outcome": "inactive"}
{"Gene": "B3GNT3", "siRNA no.": 3, "total luciferase, z-score": 0.152, "total luciferase, % of control": 84.9, "outcome": "inactive"}
{"Gene": "ZSCAN1", "siRNA no.": 1, "total luciferase, z-score": 0.435, "total luciferase, % of control": 90.5, "outcome": "inactive"}
{"Gene": "ZSCAN1", "siRNA no.": 2, "total luciferase, z-score": 0.853, "total luciferase, % of control": 98.9, "outcome": "inactive"}
{"Gene": "ZSCAN1", "siRNA no.": 3, "total luciferase, z-score": 1.36, "total luciferase, % of control": 109, "outcome": "inactive"}
{"Gene": "RFPL4B", "siRNA no.": 1, "total luciferase, z-score": 0.665, "total luciferase, % of control": 95.1, "outcome": "inactive"}
{"Gene": "RFPL4B", "siRNA no.": 2, "total luciferase, z-score": -0.194, "total luciferase, % of control": 78, "outcome": "inactive"}
{"Gene": "RFPL4B", "siRNA no.": 3, "total luciferase, z-score": -0.303, "total luciferase, % of control": 75.9, "outcome": "inactive"}
{"Gene": "TM9SF2", "siRNA no.": 1, "total luciferase, z-score": -1.02, "total luciferase, % of control": 61.6, "outcome": "inactive"}
{"Gene": "TM9SF2", "siRNA no.": 2, "total luciferase, z-score": 0.826, "total luciferase, % of control": 98.3, "outcome": "inactive"}
{"Gene": "TM9SF2", "siRNA no.": 3, "total luciferase, z-score": 0.0457, "total luciferase, % of control": 82.8, "outcome": "inactive"}
